Drawing on patent EP4484444A1, this text covers binding for two molecules.

The chains behind the UniProt entries cited, without tags or fusion partners. A line that says so, or that is headed by a name, gives the form on record, which may keep a tag or linker. Residues count along the entry.
mini-procollagen III (fused to a N-terminal c-myc tag) (P02461, residues 1098-1466): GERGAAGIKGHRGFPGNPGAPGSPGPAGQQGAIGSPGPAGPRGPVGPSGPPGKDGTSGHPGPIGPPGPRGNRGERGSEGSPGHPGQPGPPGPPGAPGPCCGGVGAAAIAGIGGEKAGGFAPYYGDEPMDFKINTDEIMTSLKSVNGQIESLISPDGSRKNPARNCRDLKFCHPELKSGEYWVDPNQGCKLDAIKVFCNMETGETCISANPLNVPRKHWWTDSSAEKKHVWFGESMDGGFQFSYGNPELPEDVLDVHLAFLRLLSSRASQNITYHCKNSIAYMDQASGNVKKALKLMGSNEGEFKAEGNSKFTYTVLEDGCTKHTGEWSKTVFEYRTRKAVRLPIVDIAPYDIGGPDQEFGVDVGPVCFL
C-propeptide III (C-propeptide of procollagen III) (P02461, residues 1222-1466): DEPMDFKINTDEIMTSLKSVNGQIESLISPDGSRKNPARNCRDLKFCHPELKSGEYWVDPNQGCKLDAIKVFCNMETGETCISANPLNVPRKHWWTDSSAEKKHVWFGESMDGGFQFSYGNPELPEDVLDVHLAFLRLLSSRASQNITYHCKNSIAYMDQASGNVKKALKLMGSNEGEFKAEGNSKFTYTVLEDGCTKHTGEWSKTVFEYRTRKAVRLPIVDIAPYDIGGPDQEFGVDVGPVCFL

The target of assay [1] is C-propeptide III (C-propeptide of procollagen III) (UniProt P02461). In words: SPR co-injection over immobilized C-propeptide III.
Assay [2] deals with mini-procollagen III (fused to a N-terminal c-myc tag) (UniProt P02461). Briefly: SPR, PCPE-2 injected over immobilized mini-procollagen III. (In general: Surface plasmon resonance follows binding to a sensor surface in real time, without labels.)
Assay [3] has the same target. In words: SPR, legend of Fig. 19.

Results are given in words; binding and its absence hold for the method and conditions named. Some binding calls cover weakened binding; strength is not graded here. Where a sequence is shown, tags or fusion partners need not be part of it.

B1: human BMP-1 (bone morphogenetic protein-1) fused to a C-terminal Flag tag (enzyme, UniProt P13497-2 121-730, looked up, not shown: small tags and cut ends)
chain: AATSRPERVWPDGVIPFVIGGNFTGSQRAVFRQAMRHWEKHTCVTFLERTDEDSYIVFTYRPCGCCSYVGRRGGGPQAISIGKNCDKFGIVVHELGHVVGFWHEHTRPDRDRHVSIVRENIQPGQEYNFLKMEPQEVESLGETYDFDSIMHYARNTFSRGIFLDTIVPKYEVNGVKPPIGQRTRLSKGDIAQARKLYKCPACGETLQDSTGNFSSPEYPNGYSAHMHCVWRISVTPGEKIILNFTSLDLYRSRLCWYDYVEVRDGFWRKAPLRGRFCGSKLPEPIVSTDSRLWVEFRSSSNWVGKGFFAVYEAICGGDVKKDYGHIQSPNYPDDYRPSKVCIWRIQVSEGFHVGLTFQSFEIERHDSCAYDYLEVRDGHSESSTLIGRYCGYEKPDDIKSTSSRLWLKFVSDGSINKAGFAVNFFKEVDECSRPNRGGCEQRCLNTLGSYKCSCDPGYELAPDKRRCEAACGGFLTKLNGSITSPGWPKEYPPNKNCIWQLVAPTQYRISLQFDFFETEGNDVCKYDFVEVRSGLTADSKLHGKFCGSEKPEVITSQYNNMRVEFKSDNTVSKKGFKAHFFSEKRPALQPPRGRPHQLKFRVQKRNRTPQ
Consider B1, for which the binding result in assay [1] was “binds”.

B2: recombinant human PCPE-2 (procollagen C-proteinase enhancer 2) fused to a 6 Histidine-tag at the N-terminus (protein)
chain: HHHHHHQSPERPVFTCGGILTGESGFIGSEGFPGVYPPNSKCTWKITVPEGKVVVLNFRFIDLESDNLCRYDFVDVYNGHANGQRIGRFCGTFRPGALVSSGNKMMVQMISDANTAGNGFMAMFSAAEPNERGDQYCGGLLDRPSGSFKTPNWPDRDYPAGVTCVWHIVAPKNQLIELKFEKFDVERDNYCRYDYVAVFNGGEVNDARRIGKYCGDSPPAPIVSERNELLIQFLSDLSLTADGFIGHYIFRPKKLPTTTEQPVTTTFPVTTGLKPTVALCQQKCRRTGTLEGNYCSSDFVLAGTVITTITRDGSLHATVSIINIYKEGNLAIQQAGKNMSARLTVVCKQCPLLRRGLNYIIMGQVGEDGRGKIMPNSFIMMFKTKNQKLLDALKNKQC
Regarding B2, the binding result in assay [2] and in assay [3] was “binds” throughout.
